According to patent US20250369032A1 (priority 2023, published 2025):
Where two headings read alike, the source gives them in different places. Some results were stated once for a whole list of compounds, not compound by compound. At least one structure is not confirmed: it was looked up by name or label, or the drawing left a doubt.

By UniProt entry, the sequences of proteins in these tests, tags left out. Residues count along the entry.
UniProt P19111, 20-506: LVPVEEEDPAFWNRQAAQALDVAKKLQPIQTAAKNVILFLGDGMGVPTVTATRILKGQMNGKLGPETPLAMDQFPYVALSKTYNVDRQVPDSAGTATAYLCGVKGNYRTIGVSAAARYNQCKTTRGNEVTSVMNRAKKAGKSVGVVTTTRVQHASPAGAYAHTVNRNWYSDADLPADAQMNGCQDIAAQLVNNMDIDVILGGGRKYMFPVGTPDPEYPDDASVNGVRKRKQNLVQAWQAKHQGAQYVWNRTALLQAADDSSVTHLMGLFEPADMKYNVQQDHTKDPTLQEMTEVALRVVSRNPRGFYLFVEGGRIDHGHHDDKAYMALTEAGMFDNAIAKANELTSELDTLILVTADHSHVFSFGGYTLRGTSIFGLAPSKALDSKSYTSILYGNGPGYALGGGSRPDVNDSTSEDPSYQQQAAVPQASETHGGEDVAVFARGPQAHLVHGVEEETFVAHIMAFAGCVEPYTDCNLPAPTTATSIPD

Tests used:
alkaline phosphatase [1] = target: T1, alkaline phosphatase (Bos taurus, UniProt P19111); format: biochemical; parameters: purchased Sigma Aldrich, St. Louis, MO P0114 (original source); P7640 (second source, 'new AP' condition only); conditions: for optical density readings (FIG. 3A): with discs, 100 μL into 1.25 mL reaction reagent (10,000 units)
Excerpt: Our next study focused on an in vitro method of detecting the potential of dermal corrosives to inhibit nonspecific phosphatases that may be released from the skin. We decided to test pure […] instead of relying on endogenous skin phosphatase. Alkaline phosphatase (Sigma Aldrich, St. Louis, MO) was purchased and suspended to make the reaction reagent (10,000 units). […] We note that the ratio used was 0.1 g/ml or 10% chemical-which is far in excess of any pharmaceutical applications. We further note that pharmaceutical enzyme inhibition tests, studies an use involve highly specific active site binding and these assays are conducted at ratios of micrograms-femtograms per ml. These studies are done at these ranges because these are the realistic concentrations for drug applications and therapeutics. […] So when a 50 Kg human consumes the tables, the tissues will be exposed at a 5 mg/50 kg=0.1 mg/kg=0.0000001 g/ml.
Next two quantitative methods were evaluated: 1) using the discs parts from our OptiSafe™ test method and 2) directly into the 24-well plate.
• 1. Alkaline phosphatase reaction reagent • a. Take 1 vial of AP, add 1 mL of PBS, mix by pipette/re-pipette 10 times • b. To a 50 mL conical tube, add 1 mL of the AP solution prepared above and 40 mL of PBS • 2. Prepare two 24-well plates (1 with discs, 1 without discs) • 3. […] Aliquot 200 μL PNPP and PBS
• 1. Plate 1 (No Discs) • a. Add 1.25 mL from the prepared PBS-AP conical tube to each well (11 wells) • b. Add 100 μL of the test material to the well, mix with the same pipette tip, dispose and repeat for the rest of the test materials • c. Wrap the plate in saran wrap and place into the container • 2. Plate 2 (Discs) • a. Configure the 11 discs in the plate so the plate cover is stable • b. Add 1.25 mL from the prepared PBS-AP conical tube to each well (11 wells) • c. Add 100 μL of the test material to the center of the disc and repeat for the rest of the test materials • d. Put the plate cover on and place into the container • 3. […] Incubate for 1 hour
For the new study, the alkaline phosphatase was suspended in phosphate buffered saline (PBS) to make the reaction reagent. Then, 100 μL of the test chemical is added directly into the corresponding wells on a 24-well plate with 1.25 mL of alkaline phosphatase reaction reagent already aliquoted.
• 1. Alkaline phosphatase reaction reagent • a. Take 1 vial of AP, add 1 mL of PBS, mix by pipette/re-pipette 10 times • b. To a 50 mL conical tube, add 1 mL of the AP solution prepared above and 40 mL of PBS • 2. Prepare two 24-well plates • 3. […] Aliquot with 200 μL PNPP and PBS • 4. Prepare glass vials Repeat Procedure from Jan. […] 24-well plate • a. Add 1.25 mL from the prepared PBS-AP conical tube to each well (11 wells) • b. Add 100 μL of the test material to the well, mix with the same pipette tip, dispose and repeat for the rest of the test materials • c. Wrap the plate in saran wrap and place into the container • 2. […] To the prepared 96-well plate with 200 μL PNPP or PBS, add 20 μL from the 24-well plate • 4. Incubate for 1 hour • 5.
• 1. 24-well plate • a. Add 1.25 mL from the prepared PBS-AP conical tube to each well (11 wells) • b. Add 100 μL of the test material to the well, mix with the same pipette tip, dispose and repeat for the rest of the test materials • c. After 10 minutes, mix each well • 2.

alkaline phosphatase [2] = target: T1, alkaline phosphatase; format: biochemical; parameters: purchased Sigma Aldrich, St. Louis, MO P0114 (original source); P7640 (second source, 'new AP' condition only); conditions: for optical density readings (FIG. 3B): without discs, 100 μL into 1.25 mL reaction reagent (10,000 units), 18 hours 37° C., PNPP 1 hour, 405 nm
[3] = 18 hours 37° C., PNPP 1 hour, 405 nm
[4] = repeat, without discs, 18 hours 37° C., PNPP 1 hour, 405 nm

Row | Compound | optical density readings (FIG. 3A) (alkaline phosphatase [1]; [3]) | optical density readings (FIG. 3B) (alkaline phosphatase [2]) | optical density readings (FIG. 4) (alkaline phosphatase [1]; [4]) | also measured
1 | BrCCc1ccccc1 [(2-Bromoethyl)benzene] | above 3.000 | above 3.000 |  | 
2 | CCCCCCCCCCCCCC(=O)OC(C)C [Isopropyl Myristate] |  |  |  | optical density readings (FIG. 4) (alkaline phosphatase [1]): above 3.000
3 | CCCSSCCC [di-n-Propyl disulfide] | above 3.000 | above 3.000 | above 3.000 | 
4 | ClCCCCBr [1-Bromo-4-chlorobutane] |  |  | above 3.000 | 
5 | CCCCCCC=O [Heptanal] |  |  |  | optical density readings (FIG. 3B) (alkaline phosphatase [1]): above 3.000; optical density readings (FIG. 3A) (alkaline phosphatase [2]): above 3.000
6 | OCCOCCOCCO [Triethylene glycol] |  |  |  | optical density readings (FIG. 3B) (alkaline phosphatase [1]): above 3.000; optical density readings (FIG. 3A) (alkaline phosphatase [2]): above 3.000
7 | CC(C=O)Cc1ccc(C(C)C)cc1 (stereo not drawn) [Cyclamen aldehyde] | above 3.000 | above 3.000 | above 3.000 | 
8 | CC(C)O [Isopropanol] |  |  |  | optical density readings (FIG. 4) (alkaline phosphatase [1]): above 3.000
9 | C=CCCC=C [1,5-Hexadiene] |  |  | above 3.000 | 
10 | CC(C)(O)CCc1ccccc1 [2-Methyl-4-phenyl-2-butanol] | above 3.000 | above 3.000 |  | 
